# PubChem BioAssay AID743454 – Peter MacCallum Cancer Centre, 2014
# Aim: 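Knock-downs lowering viability or raising caspase 3/7 activity in vorinostat-treated resistant cells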 (primary screen)
# Cells: human HCT116-VR colon cancer cells, selected for vorinostat resistance
# Knock-down reagent: siRNA pool against human genes, 40 nM siRNA pool
# Time to read-out: vorinostat for 24 h, read-out about 72 h after transfection
# Challenge: vorinostat at 2.5 µM final
# Measurement: 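Two measures, CellTiter-Fluor viability and luminescent caspase 3/7 activity, each as fold change against same-plate mock wells, mean of duplicates, then screen-wide robust z-score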
# Scale: viability robust z-score: higher = more viable cells than screen typical; caspase robust z-score: higher = more caspase 3/7 activity than screen typical
# Hit rule: 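Hits are knock-downs in viability class RV1/RV2 or caspase class CA1/CA2, excluding ones that killed cells in the no-drug cell-count arm; hits then retested with single siRNAs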
# Shown is an unselected part of about 18,000 reagents tested. Of all reagents, 450 (2.5%) got an active call. 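Single biological run; no consistent viability z cut-off exists, so the class columns, not z-scores, define the calls.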 The numbers tell different reagents against one gene apart.
Gene,reagent,viability hit class,caspase hit class,viability robust z-score,caspase robust z-score,call
SLMAP (GeneID 7871),1,no change,no change,-0.9,1.84,inactive
SYTL2 (GeneID 54843),1,no change,no change,-1.71,0.96,inactive
GPR152 (GeneID 390212),1,no change,CA1 (caspase activation),-1.44,5.34,active
SENP5 (GeneID 205564),1,no change,no change,0.22,-0.44,inactive
ZNF493 (GeneID 284443),1,no change,no change,-0.18,1.9,inactive
CCDC7 (GeneID 79741),1,no change,no change,0.26,0.33,inactive
CCDC7 (GeneID 79741),2,no change,no change,-0.18,-1.17,inactive
EPHA4 (GeneID 2043),1,no change,no change,-1.3,-0.36,inactive
FLACC1 (GeneID 130540),1,no change,no change,-1.27,2.09,inactive
FADS1 (GeneID 3992),1,no change,CA2 (caspase activation),0.1,5.26,active
EPB41L2 (GeneID 2037),1,no change,no change,0.3,3.33,inactive
DCANP1 (GeneID 140947),1,no change,no change,-0.01,-0.58,inactive
SF3B4 (GeneID 10262),1,no change,no change,-2.46,2.37,inactive
LAMB2 (GeneID 3913),1,no change,no change,-1.88,-0.4,inactive
GIMAP6 (GeneID 474344),1,no change,no change,0.8,0.21,inactive
SOBP (GeneID 55084),1,no change,no change,-0.58,1.36,inactive
INVS (GeneID 27130),1,no change,no change,0.64,-0.82,inactive
ALCAM (GeneID 214),1,no change,no change,-0.43,0.71,inactive
CRADD (GeneID 8738),1,no change,no change,-2.32,4.75,inactive
TCF4 (GeneID 6925),1,no change,no change,0.8,-0.66,inactive
PLAC9 (GeneID 219348),1,no change,no change,1.54,-0.01,inactive
PLD1 (GeneID 5337),1,no change,no change,0.24,-0.74,inactive
ZNF581 (GeneID 51545),1,no change,no change,0.12,0.5,inactive
KCNJ4 (GeneID 3761),1,no change,no change,-1.1,1.43,inactive
CDKL4 (GeneID 344387),1,no change,no change,-0.92,1.9,inactive
TONSL (GeneID 4796),1,no change,no change,0.34,1.4,inactive
ABR (GeneID 29),1,no change,no change,-0.48,0.78,inactive
CCDC122 (GeneID 160857),1,no change,no change,-0.16,2.07,inactive
VPS72 (GeneID 6944),1,no change,no change,0,-0.66,inactive
SETD6 (GeneID 79918),1,no change,no change,-0.68,0.24,inactive
YAF2 (GeneID 10138),1,no change,no change,0.5,-0.81,inactive
EDEM2 (GeneID 55741),1,no change,no change,0.02,0.11,inactive
UBR5 (GeneID 51366),1,no change,no change,-2.48,3.77,inactive
AGAP4 (GeneID 119016),1,no change,no change,-0.74,0.66,inactive
AGAP4 (GeneID 119016),2,no change,no change,1.4,-0.79,inactive
HGF (GeneID 3082),1,no change,no change,0.02,0.44,inactive
CDC23 (GeneID 8697),1,no change,no change,-0.51,0.46,inactive
TMEM164 (GeneID 84187),1,no change,no change,-1.23,4.1,inactive
ZNF607 (GeneID 84775),1,no change,no change,1.64,-1.04,inactive
PRCC (GeneID 5546),1,no change,no change,-0.69,0.02,inactive
MTTP (GeneID 4547),1,no change,no change,0.12,0.21,inactive
CHRNB2 (GeneID 1141),1,no change,no change,-0.21,-0.57,inactive
GPR174 (GeneID 84636),1,no change,no change,-2.46,-1.37,inactive
CCRL2 (GeneID 9034),1,no change,no change,1.16,-1.19,inactive
EMILIN1 (GeneID 11117),1,no change,no change,-1,-0.38,inactive
RRAGC (GeneID 64121),1,no change,no change,-0.69,0.32,inactive
CASP8 (GeneID 841),1,no change,no change,1.64,-0.82,inactive
CIT (GeneID 11113),1,no change,no change,-1.03,3.28,inactive
GTF3C3 (GeneID 9330),1,no change,no change,0.48,0.05,inactive
RFX1 (GeneID 5989),1,no change,no change,1.62,0.1,inactive
ERI1 (GeneID 90459),1,no change,no change,0.74,-0.94,inactive
CFAP20 (GeneID 29105),1,no change,no change,-0.46,2.23,inactive
ZCCHC3 (GeneID 85364),1,no change,no change,-0.2,-0.09,inactive
CASR (GeneID 846),1,no change,no change,1,-0.7,inactive
PABPN1L (GeneID 390748),1,no change,no change,0.13,2.4,inactive
ADGRD1 (GeneID 283383),1,no change,no change,1.03,0.87,inactive
TUBG2 (GeneID 27175),1,no change,no change,-0.38,1.92,inactive
B3GALT5 (GeneID 10317),1,no change,no change,-0.9,3.95,inactive
PLA2R1 (GeneID 22925),1,no change,no change,-1.51,0.46,inactive
ZNF442 (GeneID 79973),1,no change,no change,0.02,-0.36,inactive
NETO2 (GeneID 81831),1,no change,no change,0.34,-0.64,inactive
UTP25 (GeneID 27042),1,no change,no change,-2.06,3.41,inactive
LIPH (GeneID 200879),1,no change,no change,1.62,0.04,inactive
NPRL2 (GeneID 10641),1,no change,no change,-0.63,1.05,inactive
AKR7A3 (GeneID 22977),1,no change,no change,-1.45,2.44,inactive
UBE4A (GeneID 9354),1,no change,no change,-1.53,-0.58,inactive
MBOAT2 (GeneID 129642),1,no change,no change,-0.1,-0.52,inactive
OR10AD1 (GeneID 121275),1,no change,no change,1.11,-0.64,inactive
CFAP184 (GeneID 257236),1,no change,no change,-1.54,3.27,inactive
PPM1D (GeneID 8493),1,no change,no change,0.8,0.49,inactive
ZNF598 (GeneID 90850),1,no change,no change,0.29,0.06,inactive
FRG2B (GeneID 441581),1,no change,no change,0.38,-1.08,inactive
GCLC (GeneID 2729),1,no change,no change,0.71,-0.65,inactive

12 successive reagents already listed, for reference:
Gene,reagent,viability hit class,caspase hit class,viability robust z-score,caspase robust z-score,call
CFAP20 (GeneID 29105),1,no change,no change,-0.46,2.23,inactive
ZCCHC3 (GeneID 85364),1,no change,no change,-0.2,-0.09,inactive
CASR (GeneID 846),1,no change,no change,1,-0.7,inactive
PABPN1L (GeneID 390748),1,no change,no change,0.13,2.4,inactive
ADGRD1 (GeneID 283383),1,no change,no change,1.03,0.87,inactive
TUBG2 (GeneID 27175),1,no change,no change,-0.38,1.92,inactive
B3GALT5 (GeneID 10317),1,no change,no change,-0.9,3.95,inactive
PLA2R1 (GeneID 22925),1,no change,no change,-1.51,0.46,inactive
ZNF442 (GeneID 79973),1,no change,no change,0.02,-0.36,inactive
NETO2 (GeneID 81831),1,no change,no change,0.34,-0.64,inactive
UTP25 (GeneID 27042),1,no change,no change,-2.06,3.41,inactive
LIPH (GeneID 200879),1,no change,no change,1.62,0.04,inactive
